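Whole-cell assay for inhibitors of Mycobacterium tuberculosis growth, labelled Cornell in the record; the read-out is not stated. The concentration is filed as 10 mM, unlikely as a test dose, so the dose is not known. The record gives no direction; compounds strong in two other growth screens of this library score well above the rest, so higher reads as stronger inhibition. Size under these conditions: about 53,000 compounds, about 900 of them at 50% or above in at least one test.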

Results are given as percent effect. The record does not define 0% and 100%; most values in the screen are far below 50% and negative numbers occur (in some assays of this library far below -100). The compounds are a random part of those screened.

Cl.NC1CCc2nc(-c3cccnc3)nc(Nc3ccc(F)cc3)c2C1 (stereo unspecified) read 98.04%.
CCc1nc(NS(=O)(=O)c2cc(C)ccc2F)no1 read 4.198%.
C[C@@H]1CN(S(=O)(=O)N2CCOCC2)C[C@@]1(O)C1CC1 read -6.875%.
CC(=O)N1CCC(N[C@@H]2CO[C@H](CNC(=O)C3CCCC3)[C@H]2O)CC1 read 7.764%.
[H][C@@]12C[C@H](C(=O)NC3CCC3)[C@@]([H])(CN(c3ncc(CC)cn3)C1)O2 read -1.039%.
CCN(Cc1ccc2cccc(O)c2n1)CC1CCCO1 (stereo unspecified) read 6.923%.
O=C(Cn1ccnc1)N1CCC(n2cc(-c3cccc(Cl)c3)nn2)CC1 read 2.185%.
Cn1nnnc1SCCNC(=O)C1CCN(C(=O)C2CC2)CC1 read -22.73%.
O=C1NCCCN1Cc1nc(-c2ccc(N3CCCCC3)cc2)no1 read -31.26%.
Cn1cc(NC(=O)Nc2ccccn2)cc(Cl)c1=O read -0.6341%.
CC(C)CC(=O)NS(=O)(=O)c1ccc2c(c1)OCCCO2 read -2.438%.
O=C(C1CCOC1)N1CCC2(CCCNC2)CC1 (stereo unspecified) read 25.56%.
Cn1ncc2c(N[C@@H]3CS(=O)(=O)C[C@H]3O)nc(C(C)(C)C)nc21 read 21.34%.
CC(C)CN1C(=O)C2(CCCC2)NC1c1cccnc1 (stereo unspecified) read -17.45%.
Fc1ccc(CNCc2nnc3n2CC(C(F)(F)F)CC3)c(F)c1 (stereo unspecified) read 6.004%.
O=C(C1CCC1)N1CCC2(CC1)CNCCO2 read 7.342%.
CCOc1cccc2c1OCC(=O)N(c1ccc3c(c1)OCO3)C2 read -8.978%.
CCSCc1ccnc(NC(=O)C2CCCO2)c1 (stereo unspecified) read 11.84%.
CCc1cc(N(C)CCCO)n2nccc2n1 read -16.56%.
CSc1ccc(-n2ccnc2-c2cc3n(n2)CCNC3)cc1 read -10.42%.
Cc1nccc(N[C@H]2CN(C(=O)CN3CCCC3=O)C[C@@H]2C(C)C)n1 read -10.29%.
Cc1cc(C)n(Cc2cc(C(=O)N3CCCC3c3nccs3)n[nH]2)n1 (stereo unspecified) read 44.88%.
O=C(NCc1ccncc1)N1CCSCC1c1ccc(Cl)cc1 (stereo unspecified) read 18.89%.
CCc1ccc(C(=O)N2CCC(O)(CN3CCOCC3)C(C)(C)C2)[nH]1 (stereo unspecified) read 5.73%.
CCCOCC1CCN(C(=O)Cn2cccc(C(F)(F)F)c2=O)C1 (stereo unspecified) read -21.92%.
[H][C@@]12CCN(C(=O)c3cccn3C)C[C@@]1([H])O[C@@H](c1nc(C)no1)C2 read -7.458%.
[H][C@@]12CN(Cc3ccccn3)C[C@]1([H])OCCN2c1cccnc1 read 37.17%.
COc1ccc(C(C)NC(=O)N2CCNC(=O)CC2)cc1F (stereo unspecified) read 20.83%.
N#Cc1nccnc1N1CCN(CCOCc2ccccc2)CC1 read 26.92%.
O=C(O)C(F)(F)F.O=C(O)C(F)(F)F.[H][C@@]12CN(CC3CCOCC3)C[C@@]1([H])N(Cc1ccncc1)C(=O)CO2 read 20.46%.
CC(C)N(Cc1cnn(C)c1)C(=O)c1ccnc(N(C)C)c1 read 6.205%.
O=C(Cn1cc(C(=O)O)ccc1=O)Nc1cc(F)ccc1F read -44.36%.
CN(Cc1cnn(-c2ccccc2)n1)CC1CCCN1c1cccnn1 (stereo unspecified) read 29.14%.
Cc1ccccc1-n1cnnc1SCC(=O)NCC1CCCO1 (stereo unspecified) read 18.46%.
Cc1cc(C)nc(Nc2nccnc2C2CCCN(C(CO)CO)C2)n1 (stereo unspecified) read 36.66%.
CCOCc1ccc(NC(=O)N2CCCC2c2nncn2C)cc1 (stereo unspecified) read 5.384%.
O=C(c1nnn(-c2ccccc2F)c1-c1ccccn1)N1CCSCC1 read 13%.
CCCc1nnc(N2CC[C@](C)(O)[C@H](C)C2)s1 read 5.357%.
CS(=O)(=O)Cc1cccc(CNS(=O)(=O)c2ccc(F)c(F)c2)c1 read 8.034%.
CCn1nc(C)c(CN(CCOC)C(=O)c2ccccc2N(C)C)c1C read 11.51%.
Cc1cc(C(=O)Nc2cccn(Cc3ccccc3)c2=O)no1 read 14.15%.
Cc1nc2c(c(NCCc3nccs3)n1)CCN(CC1CC1)CC2 read -1.562%.
CN(C)C(=O)C1CCCN1c1ncnc2ccsc12 (stereo unspecified) read -2.268%.
Cc1noc2ncc(S(=O)(=O)N3CCCC(C)(C)CC3)cc12 read 49.9%.

Repeated from the top, 4 entries:

| SMILES | effect |
|---|---|
| `Cl.NC1CCc2nc(-c3cccnc3)nc(Nc3ccc(F)cc3)c2C1` (stereo unspecified) | 98.04% |
| `CCc1nc(NS(=O)(=O)c2cc(C)ccc2F)no1` | 4.198% |
| `C[C@@H]1CN(S(=O)(=O)N2CCOCC2)C[C@@]1(O)C1CC1` | -6.875% |
| `CC(=O)N1CCC(N[C@@H]2CO[C@H](CNC(=O)C3CCCC3)[C@H]2O)CC1` | 7.764% |

Data taken from ChEMBL document CHEMBL3988442, “University of Dundee, Small-Polar-MMV Screening Library” (2021).